# Assay results as given in PMC5602300.
# By UniProt entry, the sequences of proteins in these tests, tags left out. Where a name states a change or a piece, a line headed by the entry shows the natural chain unless it says otherwise.
# UniProt Q9Y6D6: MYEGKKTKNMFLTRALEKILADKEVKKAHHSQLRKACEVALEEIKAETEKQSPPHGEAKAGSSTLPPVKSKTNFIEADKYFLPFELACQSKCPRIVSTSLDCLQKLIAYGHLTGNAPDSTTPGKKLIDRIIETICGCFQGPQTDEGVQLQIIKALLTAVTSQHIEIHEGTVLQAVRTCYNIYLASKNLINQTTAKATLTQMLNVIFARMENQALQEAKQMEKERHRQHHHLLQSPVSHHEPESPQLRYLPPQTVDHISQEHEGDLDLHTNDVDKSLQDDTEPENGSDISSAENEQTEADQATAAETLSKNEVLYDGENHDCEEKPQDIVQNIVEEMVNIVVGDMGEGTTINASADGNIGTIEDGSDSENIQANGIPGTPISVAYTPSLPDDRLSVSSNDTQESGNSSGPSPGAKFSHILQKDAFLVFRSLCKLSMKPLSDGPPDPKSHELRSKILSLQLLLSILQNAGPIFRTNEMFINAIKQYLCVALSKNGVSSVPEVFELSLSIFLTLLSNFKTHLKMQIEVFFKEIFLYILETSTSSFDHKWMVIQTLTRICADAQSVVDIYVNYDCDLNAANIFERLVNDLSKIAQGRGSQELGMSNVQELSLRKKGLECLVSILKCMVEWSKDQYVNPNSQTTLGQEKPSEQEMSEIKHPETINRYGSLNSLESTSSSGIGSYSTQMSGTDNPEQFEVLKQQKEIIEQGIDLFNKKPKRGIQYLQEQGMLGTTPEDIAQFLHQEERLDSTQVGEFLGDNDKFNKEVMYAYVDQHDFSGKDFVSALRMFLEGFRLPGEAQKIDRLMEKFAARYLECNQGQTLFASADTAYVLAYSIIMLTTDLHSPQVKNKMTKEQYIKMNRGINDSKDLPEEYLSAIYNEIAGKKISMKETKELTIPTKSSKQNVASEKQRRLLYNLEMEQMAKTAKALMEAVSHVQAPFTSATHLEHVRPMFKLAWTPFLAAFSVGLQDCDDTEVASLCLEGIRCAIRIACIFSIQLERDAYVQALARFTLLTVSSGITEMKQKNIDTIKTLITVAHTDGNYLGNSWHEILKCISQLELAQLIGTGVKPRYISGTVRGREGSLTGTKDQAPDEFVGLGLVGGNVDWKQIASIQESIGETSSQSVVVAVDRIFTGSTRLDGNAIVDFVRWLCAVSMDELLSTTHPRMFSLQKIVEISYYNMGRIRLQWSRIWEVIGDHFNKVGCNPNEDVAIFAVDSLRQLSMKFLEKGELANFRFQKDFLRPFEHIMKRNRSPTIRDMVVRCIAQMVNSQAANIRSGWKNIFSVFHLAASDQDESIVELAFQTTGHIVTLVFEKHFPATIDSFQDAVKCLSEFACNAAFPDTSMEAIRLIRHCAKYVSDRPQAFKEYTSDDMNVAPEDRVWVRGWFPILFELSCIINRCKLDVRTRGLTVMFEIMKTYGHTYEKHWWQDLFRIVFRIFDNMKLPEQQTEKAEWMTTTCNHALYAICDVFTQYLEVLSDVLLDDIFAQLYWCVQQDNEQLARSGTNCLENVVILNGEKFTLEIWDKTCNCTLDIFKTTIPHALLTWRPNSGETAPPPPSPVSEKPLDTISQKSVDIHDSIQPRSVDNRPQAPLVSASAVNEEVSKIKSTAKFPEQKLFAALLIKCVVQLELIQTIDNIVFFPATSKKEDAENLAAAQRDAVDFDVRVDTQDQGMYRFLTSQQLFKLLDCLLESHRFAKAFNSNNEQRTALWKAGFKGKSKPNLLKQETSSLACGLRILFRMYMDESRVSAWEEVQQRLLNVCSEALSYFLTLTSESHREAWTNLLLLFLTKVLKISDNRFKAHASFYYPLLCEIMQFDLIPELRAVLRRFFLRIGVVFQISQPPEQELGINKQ
# UniProt Q9Y448: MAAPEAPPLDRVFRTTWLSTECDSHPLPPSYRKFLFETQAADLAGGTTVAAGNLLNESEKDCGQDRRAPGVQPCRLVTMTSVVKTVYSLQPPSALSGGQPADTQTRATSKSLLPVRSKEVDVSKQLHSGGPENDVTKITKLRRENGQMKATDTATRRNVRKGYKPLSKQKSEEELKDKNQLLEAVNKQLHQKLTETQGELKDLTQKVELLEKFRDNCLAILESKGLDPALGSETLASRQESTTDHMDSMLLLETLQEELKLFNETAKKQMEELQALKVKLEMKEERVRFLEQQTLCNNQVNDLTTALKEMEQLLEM
# UniProt Q96R06: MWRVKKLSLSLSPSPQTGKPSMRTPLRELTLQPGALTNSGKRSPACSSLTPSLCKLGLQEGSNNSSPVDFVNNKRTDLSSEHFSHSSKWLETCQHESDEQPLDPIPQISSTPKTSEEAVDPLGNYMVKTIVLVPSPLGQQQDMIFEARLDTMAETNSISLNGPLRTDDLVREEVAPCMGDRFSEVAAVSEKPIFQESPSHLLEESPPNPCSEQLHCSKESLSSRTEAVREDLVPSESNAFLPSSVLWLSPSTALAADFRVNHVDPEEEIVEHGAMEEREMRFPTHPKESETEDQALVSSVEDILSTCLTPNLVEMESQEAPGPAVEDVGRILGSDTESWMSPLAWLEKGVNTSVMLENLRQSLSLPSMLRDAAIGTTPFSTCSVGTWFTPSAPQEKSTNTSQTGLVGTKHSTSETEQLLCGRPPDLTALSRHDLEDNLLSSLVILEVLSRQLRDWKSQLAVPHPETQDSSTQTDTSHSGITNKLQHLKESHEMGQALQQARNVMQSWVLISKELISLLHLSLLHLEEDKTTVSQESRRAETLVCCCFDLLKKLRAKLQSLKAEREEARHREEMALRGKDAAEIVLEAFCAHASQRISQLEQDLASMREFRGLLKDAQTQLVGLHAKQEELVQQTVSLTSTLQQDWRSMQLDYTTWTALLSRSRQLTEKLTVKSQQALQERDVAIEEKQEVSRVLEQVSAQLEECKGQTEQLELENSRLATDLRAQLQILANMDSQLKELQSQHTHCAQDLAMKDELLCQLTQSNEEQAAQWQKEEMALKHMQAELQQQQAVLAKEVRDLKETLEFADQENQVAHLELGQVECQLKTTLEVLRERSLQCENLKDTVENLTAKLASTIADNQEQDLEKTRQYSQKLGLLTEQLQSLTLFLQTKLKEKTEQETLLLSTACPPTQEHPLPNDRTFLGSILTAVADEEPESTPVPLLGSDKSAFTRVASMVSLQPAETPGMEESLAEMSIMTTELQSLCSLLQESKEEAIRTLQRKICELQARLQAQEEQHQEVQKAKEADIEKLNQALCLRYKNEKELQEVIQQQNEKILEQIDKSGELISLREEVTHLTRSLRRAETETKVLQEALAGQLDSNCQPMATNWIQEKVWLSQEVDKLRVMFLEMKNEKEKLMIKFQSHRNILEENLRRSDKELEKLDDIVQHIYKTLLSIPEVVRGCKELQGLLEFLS
# These are yes or no findings as the source states them, for the method shown. In cells and extracts the contact can be indirect. These calls come from enrichment with a bait or labelling near it, and not all partners need be listed. Tags and fused reporters may be left off the sequences shown.
# Target: T1, MYCBP-LAP (human) (UniProt Q99417)
# T1 sequence: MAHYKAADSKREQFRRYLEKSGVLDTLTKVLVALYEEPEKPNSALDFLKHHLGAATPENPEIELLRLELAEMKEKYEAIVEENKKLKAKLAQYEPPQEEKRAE
# Test: affinity purification with mass spectrometry; MYCBP IP (this study) from human tissue culture cells, standard immunoprecipitation mass spectrometry
row,Substance,binding
1,ARFGEF1 (from UniProt Q9Y6D6 1-1849),binds
2,"SKAP (endogenous, HeLa cells) (from UniProt Q9Y448)",binds
3,"Astrin (endogenous, HeLa cells) (from UniProt Q96R06 1-1193)",binds
